Results from paper PMC10164935.
Results are given in words; binding and its absence hold for the method and conditions named. For some assays here: A result given as binding can be weak or reduced; the word gives no strength. For some assays here: In cells and extracts the contact can be indirect.

Sequences of proteins named here, by UniProt entry; tags and fusion partners are left off. A change or cut given only in a name is not applied to a line headed by its entry. A line that says so, or that is headed by a name, gives the form on record, which may keep a tag or linker. Residues count along the entry.
UniProt Q8BWW4: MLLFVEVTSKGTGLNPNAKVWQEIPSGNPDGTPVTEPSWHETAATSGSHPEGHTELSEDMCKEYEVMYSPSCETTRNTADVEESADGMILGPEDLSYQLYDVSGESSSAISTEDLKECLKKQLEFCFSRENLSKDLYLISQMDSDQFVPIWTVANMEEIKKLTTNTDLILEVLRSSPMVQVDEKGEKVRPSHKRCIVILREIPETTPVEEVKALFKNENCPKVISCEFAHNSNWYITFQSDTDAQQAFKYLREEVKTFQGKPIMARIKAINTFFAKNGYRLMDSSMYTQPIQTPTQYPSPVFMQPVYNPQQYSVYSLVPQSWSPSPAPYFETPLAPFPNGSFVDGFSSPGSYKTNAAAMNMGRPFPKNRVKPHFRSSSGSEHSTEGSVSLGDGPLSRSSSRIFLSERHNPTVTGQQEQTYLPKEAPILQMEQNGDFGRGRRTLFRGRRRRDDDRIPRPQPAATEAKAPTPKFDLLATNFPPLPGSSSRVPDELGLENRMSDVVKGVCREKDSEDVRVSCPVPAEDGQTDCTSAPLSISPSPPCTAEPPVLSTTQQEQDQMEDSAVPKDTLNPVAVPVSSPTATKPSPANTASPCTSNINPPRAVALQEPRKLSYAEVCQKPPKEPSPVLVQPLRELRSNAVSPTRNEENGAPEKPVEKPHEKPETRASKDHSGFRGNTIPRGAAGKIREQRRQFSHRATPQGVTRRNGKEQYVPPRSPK
GST-Larp4 110-277aa: residues 110-277 of Q8BWW4
GST-Larp4 110-269aa: residues 110-269 of Q8BWW4
endogenous mouse Larp4 (La-related protein 4) of MEF cells (Q8BWW4, form named): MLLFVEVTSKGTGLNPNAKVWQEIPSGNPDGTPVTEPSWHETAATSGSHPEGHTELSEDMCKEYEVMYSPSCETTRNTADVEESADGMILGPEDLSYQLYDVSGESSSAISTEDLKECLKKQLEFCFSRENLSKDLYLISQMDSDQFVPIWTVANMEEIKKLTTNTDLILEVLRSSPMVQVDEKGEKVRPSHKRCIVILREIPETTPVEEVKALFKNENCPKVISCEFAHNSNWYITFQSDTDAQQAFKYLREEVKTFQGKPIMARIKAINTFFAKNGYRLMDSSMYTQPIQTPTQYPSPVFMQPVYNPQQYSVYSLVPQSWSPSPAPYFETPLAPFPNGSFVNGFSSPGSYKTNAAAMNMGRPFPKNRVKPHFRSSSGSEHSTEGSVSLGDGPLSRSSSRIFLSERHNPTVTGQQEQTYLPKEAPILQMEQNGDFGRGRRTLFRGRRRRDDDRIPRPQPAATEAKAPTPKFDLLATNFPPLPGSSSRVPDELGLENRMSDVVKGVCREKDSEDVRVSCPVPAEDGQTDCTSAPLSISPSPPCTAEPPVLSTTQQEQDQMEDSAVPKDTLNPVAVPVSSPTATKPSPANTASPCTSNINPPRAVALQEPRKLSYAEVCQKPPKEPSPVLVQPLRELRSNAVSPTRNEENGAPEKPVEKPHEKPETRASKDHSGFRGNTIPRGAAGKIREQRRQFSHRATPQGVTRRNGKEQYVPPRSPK
UniProt P21333: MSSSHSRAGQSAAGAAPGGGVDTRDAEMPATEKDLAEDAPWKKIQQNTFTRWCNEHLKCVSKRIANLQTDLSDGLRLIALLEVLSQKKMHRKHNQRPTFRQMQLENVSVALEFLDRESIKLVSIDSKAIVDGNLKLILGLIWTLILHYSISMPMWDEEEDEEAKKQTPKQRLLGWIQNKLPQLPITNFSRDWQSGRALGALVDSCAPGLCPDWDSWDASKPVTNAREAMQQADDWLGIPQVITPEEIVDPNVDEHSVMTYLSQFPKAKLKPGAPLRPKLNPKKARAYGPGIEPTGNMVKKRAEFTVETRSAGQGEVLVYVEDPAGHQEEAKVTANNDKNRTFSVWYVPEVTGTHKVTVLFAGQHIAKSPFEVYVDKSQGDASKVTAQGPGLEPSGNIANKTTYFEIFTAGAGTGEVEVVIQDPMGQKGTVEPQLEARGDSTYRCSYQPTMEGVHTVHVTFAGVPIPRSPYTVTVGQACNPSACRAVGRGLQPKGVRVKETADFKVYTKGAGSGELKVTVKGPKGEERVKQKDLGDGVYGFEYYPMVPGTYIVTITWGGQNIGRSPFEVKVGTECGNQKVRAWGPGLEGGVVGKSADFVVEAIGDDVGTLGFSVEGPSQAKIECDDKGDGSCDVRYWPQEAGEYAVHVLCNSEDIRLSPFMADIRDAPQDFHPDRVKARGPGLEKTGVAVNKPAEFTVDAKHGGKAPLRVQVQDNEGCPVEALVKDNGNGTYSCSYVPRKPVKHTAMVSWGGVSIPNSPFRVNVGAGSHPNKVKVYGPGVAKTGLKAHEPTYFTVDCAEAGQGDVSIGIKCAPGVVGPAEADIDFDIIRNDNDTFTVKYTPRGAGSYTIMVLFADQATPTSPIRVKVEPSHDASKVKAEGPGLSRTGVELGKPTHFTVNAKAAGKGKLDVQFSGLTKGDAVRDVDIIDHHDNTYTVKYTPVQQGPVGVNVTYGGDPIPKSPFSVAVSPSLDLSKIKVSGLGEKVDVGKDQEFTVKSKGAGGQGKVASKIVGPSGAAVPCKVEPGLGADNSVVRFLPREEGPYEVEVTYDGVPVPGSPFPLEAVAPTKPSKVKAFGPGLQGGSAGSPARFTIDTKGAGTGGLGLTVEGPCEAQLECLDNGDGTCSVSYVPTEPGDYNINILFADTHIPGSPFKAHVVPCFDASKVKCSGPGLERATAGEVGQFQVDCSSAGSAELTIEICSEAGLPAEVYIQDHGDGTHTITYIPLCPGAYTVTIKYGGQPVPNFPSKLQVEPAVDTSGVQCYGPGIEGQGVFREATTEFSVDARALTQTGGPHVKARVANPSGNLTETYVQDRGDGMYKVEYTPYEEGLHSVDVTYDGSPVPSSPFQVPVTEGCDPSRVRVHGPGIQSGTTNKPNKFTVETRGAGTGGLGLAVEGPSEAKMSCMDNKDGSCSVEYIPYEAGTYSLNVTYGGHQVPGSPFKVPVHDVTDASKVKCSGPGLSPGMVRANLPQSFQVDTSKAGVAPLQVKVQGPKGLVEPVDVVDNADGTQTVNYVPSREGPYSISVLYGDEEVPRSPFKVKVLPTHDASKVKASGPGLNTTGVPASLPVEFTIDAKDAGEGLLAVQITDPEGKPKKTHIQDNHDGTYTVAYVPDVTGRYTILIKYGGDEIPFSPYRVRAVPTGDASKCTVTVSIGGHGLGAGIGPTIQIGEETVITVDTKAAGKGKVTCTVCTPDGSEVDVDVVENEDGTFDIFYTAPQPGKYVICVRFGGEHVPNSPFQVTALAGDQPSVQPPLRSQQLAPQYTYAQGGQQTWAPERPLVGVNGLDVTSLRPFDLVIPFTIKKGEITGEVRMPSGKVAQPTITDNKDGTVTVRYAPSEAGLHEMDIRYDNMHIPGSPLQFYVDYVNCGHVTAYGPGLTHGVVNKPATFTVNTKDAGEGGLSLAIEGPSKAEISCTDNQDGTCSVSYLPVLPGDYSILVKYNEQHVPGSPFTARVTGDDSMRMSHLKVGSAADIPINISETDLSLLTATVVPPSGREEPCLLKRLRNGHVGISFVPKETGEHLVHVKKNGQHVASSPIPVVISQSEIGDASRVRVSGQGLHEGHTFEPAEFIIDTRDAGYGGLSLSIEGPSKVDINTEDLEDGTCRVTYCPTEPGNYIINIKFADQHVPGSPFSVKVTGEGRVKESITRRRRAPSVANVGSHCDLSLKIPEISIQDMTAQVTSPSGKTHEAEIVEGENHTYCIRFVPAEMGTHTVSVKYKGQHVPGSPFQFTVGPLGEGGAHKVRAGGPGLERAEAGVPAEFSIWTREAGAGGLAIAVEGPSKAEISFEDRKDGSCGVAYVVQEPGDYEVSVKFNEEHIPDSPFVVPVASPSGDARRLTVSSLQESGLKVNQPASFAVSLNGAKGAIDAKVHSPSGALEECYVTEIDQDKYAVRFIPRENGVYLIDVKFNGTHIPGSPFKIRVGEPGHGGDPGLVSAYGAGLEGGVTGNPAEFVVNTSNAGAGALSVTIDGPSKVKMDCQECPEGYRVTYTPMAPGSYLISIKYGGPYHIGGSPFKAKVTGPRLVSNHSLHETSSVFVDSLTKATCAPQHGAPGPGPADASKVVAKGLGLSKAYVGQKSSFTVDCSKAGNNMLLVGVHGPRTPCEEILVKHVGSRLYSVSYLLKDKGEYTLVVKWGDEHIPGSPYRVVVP
UniProt Q71RC2: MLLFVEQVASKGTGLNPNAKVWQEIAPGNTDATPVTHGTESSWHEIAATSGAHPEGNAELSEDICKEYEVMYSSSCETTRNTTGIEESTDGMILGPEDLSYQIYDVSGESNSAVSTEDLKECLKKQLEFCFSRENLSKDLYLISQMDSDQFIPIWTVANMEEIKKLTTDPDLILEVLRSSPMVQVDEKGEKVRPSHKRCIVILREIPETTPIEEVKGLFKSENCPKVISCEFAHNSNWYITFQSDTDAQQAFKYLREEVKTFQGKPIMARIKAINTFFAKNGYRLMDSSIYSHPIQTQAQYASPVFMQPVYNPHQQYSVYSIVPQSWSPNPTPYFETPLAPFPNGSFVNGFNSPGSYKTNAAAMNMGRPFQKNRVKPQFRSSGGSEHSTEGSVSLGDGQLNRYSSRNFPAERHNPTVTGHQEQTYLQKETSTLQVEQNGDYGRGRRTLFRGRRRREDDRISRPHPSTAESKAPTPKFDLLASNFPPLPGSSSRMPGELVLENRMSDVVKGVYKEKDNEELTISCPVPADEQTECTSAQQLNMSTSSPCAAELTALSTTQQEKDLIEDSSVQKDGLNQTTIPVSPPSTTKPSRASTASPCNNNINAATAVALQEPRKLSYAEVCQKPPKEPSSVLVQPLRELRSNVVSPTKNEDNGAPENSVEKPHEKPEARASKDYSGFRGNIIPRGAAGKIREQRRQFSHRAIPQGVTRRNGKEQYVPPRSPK

Experiments:
[1] = biological target: GST-Larp4 (mouse, full length) (mouse) (UniProt Q8BWW4); assay: pull-down; GST-Larp4 (full length, fragments or La modules) on glutathione beads, purified His-eGFP-FLNA R21-22 (2 μM in Figures 3C and 5C), TBS-0.1% Tx, 1 h, room temperature; blot anti-GFP; both purified
[2] = biological target: GST-Larp4 110-269aa (mouse) (UniProt Q8BWW4); assay: as above
[3] = biological target: GST-Larp4 110-277aa (mouse) (UniProt Q8BWW4); assay: as above
[4] = biological target: SBP-FLNA del41 (full length) (human) (UniProt P21333); assay: pull-down; SBP-FLNA (WT or del41) from transfected HEK293A lysate held on streptavidin beads, then hsSKM or MEF cell lysate, 1 h, 4°C, washed with TBS-0.1% Tx; blot anti-LARP4

| binding [1] | binding [2] | binding [3] | binding [4] | Substance |
| --- | --- | --- | --- | --- |
| binds | no binding (tested: 2 μM) | binds |  | His-eGFP-FLNA R21-22 (from UniProt P21333) (domain or fragment) |
|  |  |  | binds | endogenous mouse Larp4 (La-related protein 4) of MEF cells (from UniProt Q8BWW4 1-719) |
|  |  |  | binds | endogenous human LARP4 of hsSKM cells (from UniProt Q71RC2 1-724) |
